Data as given in PubChem BioAssay AID1224830 (NIAID, 2016).
Shown is a random part of about 18,000 reagents. About 2,900 of all reagents (16%) were called active. 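Calls are made per well; low scores hint the gene aids the LPS response, high scores that it dampens it.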 Unmarked entries are inactive. Repeated entries: four replicate wells of each siRNA pool. Reagent sequences are not shown.

Purpose: 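Genes whose knock-down alters the TNF-alpha reporter response to LPS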 (primary screen)
Cells: human THP-1 monocytic leukaemia cells, TNF dual-luciferase reporter clone, PMA-differentiated to macrophage-like cells
Reagent: siRNA pool against human genes, 50 nM
Timing: LPS for 4 h, given about 3 days after siRNA transfection
Treatment: bacterial LPS (TLR4 ligand), 10 ng/ml
Measured: 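Ratio of firefly to renilla light, scaled to the plate median and expressed as a robust z-score per replicate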
Scale: TNF reporter robust z-score: higher = stronger TNF reporter response to LPS
Call rule: 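Each well counts as active if its z-score is over 2.8 or under -1.5; controls are left without a call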

With LRCH2, what does the deposit list?
TNF reporter robust z-score: 0.52

Which result is listed for LRCH2?
TNF reporter robust z-score: 0.1

What did the screen give for LRCH2?
TNF reporter robust z-score: -0.33

With LRCH2, what does the deposit list?
TNF reporter robust z-score: 0.83

For DAZL (deleted in azoospermia like), what was measured?
TNF reporter robust z-score: -0.69

For DAZL (deleted in azoospermia like), what was measured?
TNF reporter robust z-score: 0.86

Which result is listed for DAZL (deleted in azoospermia like)?
TNF reporter robust z-score: -0.26

Which result is listed for ARSA (arylsulfatase A)?
TNF reporter robust z-score: 0.85

With ARSA (arylsulfatase A), what was measured?
TNF reporter robust z-score: 1.63

How did the screen score ARSA (arylsulfatase A)?
TNF reporter robust z-score: 1.61

What did the screen give for ARSA (arylsulfatase A)?
TNF reporter robust z-score: 2.83 (active)

What is on record for SFT2D2 (SFT2 domain containing 2)?
TNF reporter robust z-score: 2.43

Which result is listed for SFT2D2 (SFT2 domain containing 2)?
TNF reporter robust z-score: 3.17 (active)

How did the screen score SFT2D2 (SFT2 domain containing 2)?
TNF reporter robust z-score: 2.58

What is on record for SFT2D2 (SFT2 domain containing 2)?
TNF reporter robust z-score: 1.71

How did the screen score GTPBP2 (GTP binding protein 2)?
TNF reporter robust z-score: 0.35

With GTPBP2 (GTP binding protein 2), what was measured?
TNF reporter robust z-score: 1.12

What did the screen give for GTPBP2 (GTP binding protein 2)?
TNF reporter robust z-score: 0.45

For GTPBP2 (GTP binding protein 2), what was measured?
TNF reporter robust z-score: 1.78

How did the screen score PGBD5 (piggyBac transposable element derived 5)?
TNF reporter robust z-score: 2.07

For PGBD5 (piggyBac transposable element derived 5), what was measured?
TNF reporter robust z-score: -0.06

How did the screen score PGBD5 (piggyBac transposable element derived 5)?
TNF reporter robust z-score: -0.09

What is on record for PGBD5 (piggyBac transposable element derived 5)?
TNF reporter robust z-score: -0.02

For TRIM10 (tripartite motif containing 10), what does the deposit list?
TNF reporter robust z-score: -1.02

With TRIM10 (tripartite motif containing 10), how do the results read?
TNF reporter robust z-score: 1.23

What is on record for TRIM10 (tripartite motif containing 10)?
TNF reporter robust z-score: -0.05

With TRIM10 (tripartite motif containing 10), what does the deposit list?
TNF reporter robust z-score: -1.28

Which result is listed for KIAA1217?
TNF reporter robust z-score: 2.63

With KIAA1217, how do the results read?
TNF reporter robust z-score: 4.54 (active)

For KIAA1217, what does the deposit list?
TNF reporter robust z-score: -0.12

What is on record for KIAA1217?
TNF reporter robust z-score: 0.46

What did the screen give for THRAP3 (thyroid hormone receptor associated protein 3)?
TNF reporter robust z-score: 0.37

Which result is listed for THRAP3 (thyroid hormone receptor associated protein 3)?
TNF reporter robust z-score: 0.13

Which result is listed for THRAP3 (thyroid hormone receptor associated protein 3)?
TNF reporter robust z-score: 0.25

For THRAP3 (thyroid hormone receptor associated protein 3), what was measured?
TNF reporter robust z-score: -0.31

Which result is listed for SLC22A13?
TNF reporter robust z-score: 0.15

Which result is listed for SLC22A13?
TNF reporter robust z-score: 0.02

With SLC22A13, how do the results read?
TNF reporter robust z-score: 0.59

For GEN1 (GEN1 structure-specific endonuclease), what was measured?
TNF reporter robust z-score: -0.37

How did the screen score GEN1 (GEN1 structure-specific endonuclease)?
TNF reporter robust z-score: -0.3

With GEN1 (GEN1 structure-specific endonuclease), how do the results read?
TNF reporter robust z-score: -0.93

How did the screen score GEN1 (GEN1 structure-specific endonuclease)?
TNF reporter robust z-score: 0.07

With PLLP (plasmolipin), how do the results read?
TNF reporter robust z-score: 2.83 (active)

What did the screen give for PLLP (plasmolipin)?
TNF reporter robust z-score: 4.05 (active)

With PLLP (plasmolipin), how do the results read?
TNF reporter robust z-score: 0.92

Which result is listed for PLLP (plasmolipin)?
TNF reporter robust z-score: 2.23

What did the screen give for MAML3 (mastermind like transcriptional coactivator 3)?
TNF reporter robust z-score: 1.44

How did the screen score MAML3 (mastermind like transcriptional coactivator 3)?
TNF reporter robust z-score: 1.59

For MAML3 (mastermind like transcriptional coactivator 3), what does the deposit list?
TNF reporter robust z-score: 1.85

What is on record for MAML3 (mastermind like transcriptional coactivator 3)?
TNF reporter robust z-score: 1.55
